Experimental data published in patent publication US12144864B2 (Regeneron Pharmaceuticals, Inc., priority 2018, dated 2024).

Assay: peptide synthesis
[1] = whole synthesis, HPLC-MS, Agilent 1200 HPLC/6100 SQ, C18 columns, DAD (214 nm and 254 nm), ELSD
[2] = conjugation step, HPLC-MS, Agilent 1200 HPLC/6100 SQ, C18 columns, DAD (214 nm and 254 nm), ELSD

Substance | step yield (coupling step) | final HPLC purity [2] | conjugation yield (conjugation step) | other results
(4S)-4-({2-[(1R,3R)-1-(Acetyloxy)-3-[(2S,3S)—N-(hex-5-yn-1-yl)-3-methyl-2-{[(2R)-1-methylpiperidin-2-yl]formamido}pentanamido]-4-methylpentyl]-1,3-thiazol-4-yl}formamido)-5-(4-aminophenyl)-2,2-dimethylpentanoic acid | 14% yield | – | – | final HPLC purity (coupling step, Method A): >99%; final HPLC purity [1]: 100%
(4S)-4-({2-[(1R,3R)-1-(Acetyloxy)-3-[(2S,3S)—N-(hex-5-yn-1-yl)-3-methyl-2-{[(2R)-1-methylpiperidin-2-yl]formamido}pentanamido]-4-methylpentyl]-1,3-thiazol-4-yl}formamido)-5-(4-fluorophenyl)-2,2-dimethylpentanoic acid | 16% yield | – | – | final HPLC purity (coupling step, Method B): >99%; final HPLC purity [1]: 100%
(4S)-4-({2-[(1R,3R)-1-(Acetyloxy)-3-[(2S,3S)—N-hexyl-3-methyl-2-{[(2R)-1-methylpiperidin-2-yl]formamido}pentanamido]-4-methylpentyl]-1,3-thiazol-4-yl}formamido)-5-(4-fluorophenyl)-2,2-dimethylpentanoic acid | 26% yield | – | – | –
(4S)-4-({2-[(1R,3R)-1-(Acetyloxy)-3-[(2S,3S)—N-hexyl-3-methyl-2-{[(2R)-1-methylpiperidin-2-yl]formamido}pentanamido]-4-methylpentyl]-1,3-thiazol-4-yl}formamido)-5-{4-[(2S)-2-[(2S)-2-[1-(4-{2-azatricyclo[10.4.0.04,9]hexadeca-1(12),4(9),5,7,13,15-hexaen-10-yn-2-yl}-4-oxobutanamido)-3,6,9,12-tetraoxapentadecan-15-amido]-3-methylbutanamido]propanamido]-3-fluorophenyl}-2,2-dimethylpentanoic acid | – | 99% | – | conjugation yield (conjugation step, run 1): 65%; conjugation yield (conjugation step, run 2): 35%
(4S)-4-({2-[(1R,3R)-1-(Acetyloxy)-3-[(2S,3S)—N-hexyl-3-methyl-2-{[(2R)-1-methylpiperidin-2-yl]formamido}pentanamido]-4-methylpentyl]-1,3-thiazol-4-yl}formamido)-5-{4-[(2S)-2-[(2S)-2-[1-({[(1R,8S,9R)-bicyclo[6.1.0]non-4-yn-9-ylmethoxy]carbonyl}amino)-3,6,9,12-tetraoxapentadecan-15-amido]-3-methylbutanamido]propanamido]-3-fluorophenyl}-2,2-dimethylpentanoic acid | – | >99% | 48% | –
(4S)-4-({2-[(1R,3R)-1-(Acetyloxy)-4-methyl-3-[(2S,3S)-3-methyl-2-{[(2R)-1-methylpiperidin-2-yl]formamido}-N-(pent-4-yn-1-yloxy)pentanamido]pentyl]-1,3-thiazol-4-yl}formamido)-2,2-dimethyl-5-phenylpentanoic acid | 35% | – | – | final HPLC purity (coupling step, Method B): >99%; final HPLC purity [1]: 100%
(4S)-4-({2-[(1R,3R)-1-(Acetyloxy)-4-methyl-3-[(2S,3S)-3-methyl-2-{[(2R)-1-methylpiperidin-2-yl]formamido}-N-(pent-4-yn-1-yloxy)pentanamido]pentyl]-1,3-thiazol-4-yl}formamido)-5-(4-aminophenyl)-2,2-dimethylpentanoic acid | 27% | – | – | final HPLC purity (coupling step, Method B): 95%; final HPLC purity [1]: 98%
(4S)-4-({2-[(1R,3R)-1-(Acetyloxy)-4-methyl-3-[(2S,3S)-3-methyl-2-{[(2R)-1-methylpiperidin-2-yl]formamido}-N-(pent-4-yn-1-yloxy)pentanamido]pentyl]-1,3-thiazol-4-yl}formamido)-5-(4-fluorophenyl)-2,2-dimethylpentanoic acid | 40% | – | – | final HPLC purity (coupling step, Method B): >99%; final HPLC purity [1]: 100%
(4S)-4-({2-[(1R,3R)-1-(Acetyloxy)-4-methyl-3-[(2S,3S)-3-methyl-2-{[(2R)-1-methylpiperidin-2-yl]formamido}-N-(pent-4-yn-1-yloxy)pentanamido]pentyl]-1,3-thiazol-4-yl}formamido)-5-(4-{2-[2-(2-{2-[2-(cyclooct-2-yn-1-yloxy)acetamido]acetamido}acetamido)acetamido]acetamido}phenyl)-2,2-dimethylpentanoic acid | – | 95% | 87% | –
(4S)-4-({2-[(1R,3R)-1-(Acetyloxy)-4-methyl-3-[(2S,3S)-3-methyl-2-{[(2R)-1-methylpiperidin-2-yl]formamido}-N-(pent-4-yn-1-yloxy)pentanamido]pentyl]-1,3-thiazol-4-yl}formamido)-5-(4-{2-[2-(2-{2-[(2S)-2-[2-(cyclooct-2-yn-1-yloxy)acetamido]-3-hydroxypropanamido]acetamido}acetamido)acetamido]acetamido}phenyl)-2,2-dimethylpentanoic acid | – | >95% | 44% | –
(4S)-4-({2-[(1R,3R)-1-(Acetyloxy)-4-methyl-3-[(2S,3S)-3-methyl-2-{[(2R)-1-methylpiperidin-2-yl]formamido}-N-(pent-4-yn-1-yloxy)pentanamido]pentyl]-1,3-thiazol-4-yl}formamido)-5-(4-{2-[2-(cyclooct-2-yn-1-yloxy)acetamido]acetamido}phenyl)-2,2-dimethylpentanoic acid | – | >95% | 48% | –
(4S)-4-({2-[(1R,3R)-1-(Acetyloxy)-4-methyl-3-[(2S,3S)-3-methyl-2-{[(2R)-1-methylpiperidin-2-yl]formamido}-N-(pent-4-yn-1-yloxy)pentanamido]pentyl]-1,3-thiazol-4-yl}formamido)-5-(4-{2-[(2S)-2-{2-[2-(4-{2-azatricyclo[10.4.0.04,9]hexadeca-1(12),4(9),5,7,13,15-hexaen-10-yn-2-yl}-4-oxobutanamido)acetamido]acetamido}-3-phenylpropanamido]acetamido}phenyl)-2,2-dimethylpentanoic acid | – | 95% | 80% | –
(4S)-4-({2-[(1R,3R)-1-(Acetyloxy)-4-methyl-3-[(2S,3S)-3-methyl-2-{[(2R)-1-methylpiperidin-2-yl]formamido}-N-(pent-4-yn-1-yloxy)pentanamido]pentyl]-1,3-thiazol-4-yl}formamido)-5-[4-(2-aminoacetamido)phenyl]-2,2-dimethylpentanoic acid | – | – | – | step yield (late stage modification step): 50%
(4S)-4-({2-[(1R,3R)-1-(Acetyloxy)-4-methyl-3-[(2S,3S)-3-methyl-2-{[(2R)-1-methylpiperidin-2-yl]formamido}-N-(pent-4-yn-1-yloxy)pentanamido]pentyl]-1,3-thiazol-4-yl}formamido)-5-[4-(2-{2-[2-(4-{2-azatricyclo[10.4.0.04,9]hexadeca-1(12),4(9),5,7,13,15-hexaen-10-yn-2-yl}-4-oxobutanamido)acetamido]acetamido}acetamido)phenyl]-2,2-dimethylpentanoic acid | – | 99% | 33% | –
(4S)-4-({2-[(1R,3R)-1-(Acetyloxy)-4-methyl-3-[(2S,3S)-3-methyl-2-{[(2R)-1-methylpiperidin-2-yl]formamido}-N-(pent-4-yn-1-yloxy)pentanamido]pentyl]-1,3-thiazol-4-yl}formamido)-5-[4-(2-{2-[2-(cyclooct-2-yn-1-yloxy)acetamido]acetamido}acetamido)phenyl]-2,2-dimethylpentanoic acid | – | >95% | 47% | –
(4S)-4-({2-[(1R,3R)-1-(Acetyloxy)-4-methyl-3-[(2S,3S)-3-methyl-2-{[(2R)-1-methylpiperidin-2-yl]formamido}-N-(pent-4-yn-1-yloxy)pentanamido]pentyl]-1,3-thiazol-4-yl}formamido)-5-{4-[2-(2-aminoacetamido)acetamido]phenyl} | 48% | – | – | –
(4S)-4-({2-[(1R,3R)-1-(Acetyloxy)-4-methyl-3-[(2S,3S)-3-methyl-2-{[(2R)-1-methylpiperidin-2-yl]formamido}-N-(pent-4-yn-1-yloxy)pentanamido]pentyl]-1,3-thiazol-4-yl}formamido)-5-{4-[(2S)-2-[(2R)-2-[(2S)-2-[2-(cyclooct-2-yn-1-yloxy)acetamido]propanamido]propanamido]propanamido]phenyl}-2,2-dimethylpentanoic acid | – | 95% | – | –
(4S)-4-({2-[(1R,3R)-1-(Acetyloxy)-4-methyl-3-[(2S,3S)-3-methyl-2-{[(2R)-1-methylpiperidin-2-yl]formamido}-N-(pent-4-yn-1-yloxy)pentanamido]pentyl]-1,3-thiazol-4-yl}formamido)-5-{4-[(2S)-2-amino-4-carboxybutanamido]phenyl} | 63% | – | – | –
(4S)-4-({2-[(1R,3R)-1-(Acetyloxy)-4-methyl-3-[(2S,3S)-3-methyl-2-{[(2R)-1-methylpiperidin-2-yl]formamido}-N-(pent-4-yn-1-yloxy)pentanamido]pentyl]-1,3-thiazol-4-yl}formamido)-5-{4-[(2S)-2-aminopropanamido]phenyl} | 55% | – | – | –
(4S)-4-({2-[(1R,3R)-1-(Acetyloxy)-4-methyl-3-[(2S,3S)-3-methyl-2-{[(2R)-1-methylpiperidin-2-yl]formamido}-N-(pent-4-yn-1-yloxy)pentanamido]pentyl]-1,3-thiazol-4-yl}formamido)-5-{4-[(2S)-4-carboxy-2-[2-(2-{2-[2-(cyclooct-2-yn-1-yloxy)acetamido]acetamido}acetamido)acetamido]butanamido]phenyl}-2,2-dimethylpentanoic acid | – | 95% | 58% | –
